US20040037775A1, “Leukocyte internalized peptide-drug conjugates” (priority 2000, published 2004)
Some of these results come from one statement about several compounds together.

How the values were obtained:
IL-8 production = IL-8 production in TNF-α stimulated HCAEC monolayers; format: cell-based; conditions: 24 h
[1] = tested on: homotypic T-cell adhesion; conditions: previously shown; cited from earlier work

Substance	concentration at which IL-8 production was not affected (IL-8 production) [µM]	inhibiting homotypic T-cell adhesion [1]
cyclol,12-PenDLSTSLDDLRC [cLBE.L]	≤ 1	
Gly Val Asp Val Asp Gln Asp Gly Glu Thr Glu Leu Ile Gly Ala Pro Leu Phe Tyr Gly GIu Gln Arg Gly [LAB.2]		30-52%
ITDGEATDSGNIDAAKDIIYIIGI [LAB]		30-52%
cyclol,12-PenITDGEATDSGC [cLAB.L]	≤ 1	
